Values are animals surviving of animals treated; these mice carried no tumour. Survivors were counted at the toxicity check, usually on the fifth day, unless a day is given; later deaths do not show. Schedules are NCI's codes, taken here to give the interval after Q, in days (D) or hours (H), and the number of doses after X. Counts like (3×) stand for listed records that agree.

Survivor count data for two compounds are collected here from PubChem BioAssay AID186 (DTP/NCI, 2004).

The test relates to B6D2F1 mice, nontumored toxicity test, survival. The test can be described thus: NCI In Vivo Anticancer Drug Screen. Data for tumor model Nontumored Animals (Toxicity Test) in B6D2F1 (BDF1) mice.

With `C[S+](C)CCCNC(=O)c1csc(-c2csc(CCNC(=O)c3ccccc3)n2)n1`, the survivor count is, setting by setting: (dose: 6.25 mg/kg/injection, schedule: Q01DX011 (ip), vehicle: saline) 6 of 6; (dose: 12.5 mg/kg/injection, schedule: Q01DX011 (ip), vehicle: saline) 6 of 6; (dose: 25.0 mg/kg/injection, schedule: Q01DX011 (ip), vehicle: saline) 6 of 6; (dose: 50.0 mg/kg/injection, schedule: Q01DX011 (ip), vehicle: saline) 6 of 6; (dose: 100.0 mg/kg/injection, schedule: Q01DX011 (ip), vehicle: saline) 1 of 6.
Consider `COC1C(NC(=O)N(CCCl)N=O)C(OC(C)=O)OC(COC(C)=O)C1OC(C)=O` (centres undefined), for which the survivor count is 10 of 10 (2×) (dose: 1.8 mg/kg/injection, schedule: Q01DX001 (ip), vehicle: saline with Tween-80); 10 of 10 (2×) (dose: 2.6 mg/kg/injection, schedule: Q01DX001 (ip), vehicle: saline with Tween-80); 9 of 9 (2×) (dose: 4.0 mg/kg/injection, schedule: Q01DX001 (ip), vehicle: saline with Tween-80); 10 of 10 (2×) (dose: 6.0 mg/kg/injection, schedule: Q01DX001 (ip), vehicle: saline with Tween-80).
